Reference: article PMC11803974
These are yes or no findings as the source states them, for the method shown. Binding seen in cells or lysates may run through a third protein. Some results given as binding are weak or reduced against the parent protein; the word gives no strength.

Biological target: T1, Translationally controlled tumor protein 1 (human (endogenous in AGS)) (UniProt P13693)
T1 sequence: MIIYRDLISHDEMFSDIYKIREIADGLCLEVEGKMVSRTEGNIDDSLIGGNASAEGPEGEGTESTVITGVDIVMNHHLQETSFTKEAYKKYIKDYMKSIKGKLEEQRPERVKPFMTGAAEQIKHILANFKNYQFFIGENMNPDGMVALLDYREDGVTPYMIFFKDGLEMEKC
Assay: co-IP; lysates of AGS cells stimulated with H. pylori 26695 or the ΔSlyD strain; incubated overnight at 4 °C with anti-TPT1 or IgG antibody and protein A/G beads, washed three times in IP lysis buffer; western blot for TPT1 and hnRNPK

With “Heterogeneous nuclear ribonucleoprotein K (from UniProt P61978 1-463)” the binding was “binds”.
